Results published in PubChem BioAssay (NCATS).
Several values for one entry are separate records, joined by “and”; a condition that tells them apart may be missing. Identical values can stand only once. The inconclusive results got no clear call from the source; some entries with a clear call stand among them for comparison. For part of these data: Where the call is inconclusive, the potency comes from a doubtful curve fit. Activity calls are given as the source filed them. Unless noted, calls come from the whole dose curve; as a rule, active = well fitted curve in the direction sought with a large enough effect; inconclusive = small, poorly fitted or top-dose-only effect, or another doubt; inactive = no such curve, though single readings can be large; an effect the other way counts as inactive or inconclusive.

Sequences of proteins named here, by UniProt entry; tags and fusion partners are left off.
UniProt P10635, whole entry, looked up: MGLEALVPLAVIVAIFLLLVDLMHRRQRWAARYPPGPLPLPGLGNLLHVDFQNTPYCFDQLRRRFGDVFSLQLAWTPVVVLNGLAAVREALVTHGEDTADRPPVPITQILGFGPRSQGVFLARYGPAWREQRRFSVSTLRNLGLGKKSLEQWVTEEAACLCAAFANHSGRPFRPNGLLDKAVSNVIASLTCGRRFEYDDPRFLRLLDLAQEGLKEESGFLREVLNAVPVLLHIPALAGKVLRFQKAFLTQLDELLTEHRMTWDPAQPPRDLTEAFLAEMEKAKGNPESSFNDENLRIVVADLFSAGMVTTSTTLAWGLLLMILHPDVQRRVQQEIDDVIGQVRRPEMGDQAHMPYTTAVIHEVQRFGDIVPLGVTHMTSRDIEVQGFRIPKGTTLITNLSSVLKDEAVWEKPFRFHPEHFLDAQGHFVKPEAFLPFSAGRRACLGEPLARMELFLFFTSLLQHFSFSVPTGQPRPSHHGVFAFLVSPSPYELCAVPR

Assays:
[1] = qHTS of pediatric cancer cell lines to identify multiple opportunities for drug repurposing: Primary screen for Rh41 cells (AID 1347108); note: nearly all actives have a fitted effect of over 70% in size;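 for activity change, negative = cytotoxic: luminescence drop marks cytotoxic hits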
In short: (§1)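 Plated cells (500-1,000 per well, growth media) were allowed to settle for 5 hours, treated with compound dilutions for 48 hours, then lysed with CellTiter-Glo for 15 min at room temperature before luminescence reading.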

[2] = system: WaGa; test: qHTS assay to identify novel small-molecules to repurpose for Merkel cell carcinoma treatment (AID 1296009); details: MCC and control cell lines, CellTiter-Glo viability, 72 h; series mostly up to 46 µM; note: nearly all actives have a fitted effect of over 60% in size
In short: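 Cell viability measured by CellTiter-Glo following 72 hr compound treatment at 37 degree celsius, with NPC and MIPE libraries tested in 8- and 11-point concentration series.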

[3] = molecular target: Cytochrome P450 2D6 (Homo sapiens) (UniProt P10635); test: Cytochrome P450 family 2 subfamily D member 6 (CYP2D6) small molecule antagonists: luciferase biochemical (cell-free) qHTS assay (AID 1645840; active = well fitted curve in the direction sought with a large enough effect in the repeat runs; inconclusive = weak or mixed curves; inactive = no such curve, though single readings can be large; an effect the other way counts as inactive or inconclusive; note: nearly all actives have a fitted effect of over 55% in size)
In short: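 P450-Glo CYP2D6 system: proluciferin substrate converted by enzyme to luciferin, read by luminescence proportional to activity. Enzyme-substrate mix with compound 10 min at room temperature, then NADPH regeneration 1 h before detection reagent.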

[4] = Primary redox qHTS assay for identification of artifact compounds. (AID 1845223); details: Amplex Red/HRP redox cycling with DTT, fluorescence; series mostly up to 53.8 µM
In short: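 Redox-cycling detection via DTT (250 uM final) oxidation coupled to Amplex Red (25 uM)/HRP (250 mU/mL) in HBSS. 15 min preincubation plus 30 min after DTT, room temperature. Ex/Em 525/598 nm; 4-parameter Hill fit against DMSO and 10 uM DA3003.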

[5] = qHTS assay to identify inhibitors of the type 1 interferon - major histocompatibility complex class I in skeletal muscle: Counter screen cell viability and HiBit confirmation (AID 1347412); details: iHSKM muscle cells + IFN-b, HiBiT or CellTiter-Glo, 24 h; note: nearly all actives have a fitted effect of over 60% in size
In short: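 Luminescence read-out: Nano-Glo HiBiT lytic signal from C-terminally HiBiT-tagged HLA-B in CRISPR-edited human myoblasts, plus CellTiter Glo ATP as viability counter screen. IFN-beta 4.0 ng/ml; 24 hrs treatment at 37 C, 5% CO2.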

[6] = system: Zika virus NS2B-NS3 protease (linked construct); test: Primary screen NINDS Rhodamine qHTS for Zika virus inhibitors (AID 1347160); details: activity change, negative = inhibition: at 57.1 µM (top of the series) unless noted; note: nearly all actives have a fitted effect of over 55% in size
In short: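 Aprotinin served as in-plate control. Conditions: 25 nM linked NS2B-NS3, pH 8.0 Tris buffer, titrated compounds, 15 min preincubation and 15 min reaction with 1.5 microM Rhod110 substrate at room temperature.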

[7] = qHTS of pediatric cancer cell lines to identify multiple opportunities for drug repurposing: Primary screen for DAOY cells (AID 1347090); details: DAOY medulloblastoma viability, CellTiter-Glo luminescence, 48 h; activity change, negative = cytotoxic: at 46 µM (top of the series); note: nearly all actives have a fitted effect of over 55% in size
In short: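 Cell viability, CellTiter-Glo luminescence; 500-1,000 cells/well, 8- or 11-point titration, 48 h compound exposure at 37 degrees C, 5% CO2. Controls: DMSO neutral, bortezomib 2.3 µM final as positive.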

[8] = qHTS of pediatric cancer cell lines to identify multiple opportunities for drug repurposing: Primary screen for A673 cells (AID 1347092); details: A673 Ewing sarcoma viability, CellTiter-Glo ATP luminescence, 48 h; activity change, negative = cytotoxic: at 46 µM (top of the series); note: nearly all actives have a fitted effect of over 45% in size
In short: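 Luminescence from CellTiter-Glo, taken after 15 min at room temperature, served as the proxy for metabolically active cells following 48 h treatment. Both potency and efficacy were taken from curves fitted to the titration data.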

[9] = qHTS of pediatric cancer cell lines to identify multiple opportunities for drug repurposing: Primary screen for BT-37 cells (AID 1347094)
In short: as §1

[10] = qHTS of pediatric cancer cell lines to identify multiple opportunities for drug repurposing: Primary screen for NB-EBc1 cells (AID 1347095)
In short: as §1

[11] = qHTS of pediatric cancer cell lines to identify multiple opportunities for drug repurposing: Primary screen for SK-N-SH cells (AID 1347098); note: nearly all actives have a fitted effect of over 65% in size
In short: (§2)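 Cells (500-1,000/well) rested 5 h, then received compounds for 48 h; metabolically active cells were measured by CellTiter-Glo luminescence. Final concentrations spanned up to 46 µM (MIPE, 11-point) or 0.59 nM-46 µM (NPC, 8-point) in primary screens, 11-point in follow-ups.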

[12] = qHTS of pediatric cancer cell lines to identify multiple opportunities for drug repurposing: Primary screen for NB1643 cells (AID 1347099); note: nearly all actives have a fitted effect of over 50% in size
In short: as §1

[13] = qHTS of pediatric cancer cell lines to identify multiple opportunities for drug repurposing: Primary screen for BT-12 cells (AID 1347101); note: nearly all actives have a fitted effect of over 25% in size
In short: as §2

[14] = qHTS for identification of novel therapeutic agents for treatment of microphthalmiaassociated transcription factor (MiT) renal cell carcinoma (RCC) (AID 1963991; calls by dose curve); details: TFE3-RCC UOK109 viability, CellTiter-Glo, 48 h; active = Z-AUC below -0.8 in all three lines
In short: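 Three TFE3-fusion RCC cell lines (UOK109, UOK124, UOK145), 500 cells/well, were exposed to the 1912-compound MIPE 4.0 library for 48 hours at 37 C. Viability was read by CellTiter-Glo luminescence, normalised to DMSO (100%) and empty wells (0%), with 11-concentration curve fits.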
Potency is the fitted concentration of half-maximal effect.

Nc1ncnc2c1ncn2Cc1c(F)cccc1Cl
Potency [1]: inactive
Potency [2]: inactive

COC(=O)N[C@@H](C)CNc1nccc(-c2cn(C(C)C)nc2-c2cc(Cl)cc(NS(C)(=O)=O)c2F)n1
Potency [3]: inconclusive: 23.9 µM [inhibitor, partial curve, poor fit]
Potency [4]: inconclusive: 1.68 µM [activator, full curve]
Potency ([5]; HiBiT): inconclusive: 4.43 µM [inhibitor, full curve]

COc1c(Nc2ncc(Cl)c(N[C@H]3[C@@H](C(N)=O)[C@@H]4C=C[C@H]3C4)n2)ccc2c1CC[C@@H](N1CCOCC1)CC2
Potency [6]: inactive

C=C(C)C(=O)O[C@H]1C[C@@](C)(O)C(=O)CC(O)/C(C)=C\[C@H]2OC(=O)C(=C)[C@H]12 (stereo partly specified)
Potency [6]: inconclusive: 28.2 µM [inhibitor, single point]

Cc1[nH]c2ccccc2c1C1=C(NCCc2ccc(F)cc2)C(=O)N(C)C1=O
Potency [6]: inconclusive: 3.98 µM [inhibitor, full curve, poor fit]

CNC(=O)c1ccccc1Sc1ccc2c(C=Cc3ccccn3)n[nH]c2c1
Potency [7]: inconclusive: 14.8 µM [cytotoxic, partial curve]
Potency [8]: inconclusive: 0.743 µM [cytotoxic, full curve]
Potency [9]: inconclusive: 13.7 µM [cytotoxic, partial curve]
Potency [10]: inconclusive: 0.526 µM [cytotoxic, full curve, poor fit]
Potency [11]: inconclusive: 5.41 µM [cytotoxic, partial curve]
Potency [12]: active: 16.6 µM
Potency [13]: active: 19.3 µM
Potency [1]: inconclusive: 9.35 µM [cytotoxic, partial curve]
Potency [14]: inconclusive: 3.72 µM
Potency [2]: active: 11.8 µM

C/C=C(/C)C(=O)O[C@H]1[C@H](OC(=O)/C(C)=C\C)[C@@]23C(CC1(C)C)[C@]1(CCC4[C@@]5(C)CC[C@H](O[C@@H]6O[C@H](C(=O)O)[C@@H](O)[C@H](O[C@@H]7O[C@H](CO)[C@H](O)[C@H](O)[C@H]7O[C@@H]7O[C@@H](C)[C@H](O)[C@@H](O)[C@H]7O[C@@H]7OC[C@@H](O)[C@H](O)[C@H]7O)[C@H]6O[C@@H]6O[C@H](CO)[C@H](O)[C@H](O)[C@H]6O)C(C)(C)C5CC[C@@]4(C)[C@]1(C)C[C@H]2O)O[C@H]3O (stereo partly specified)
Potency [6]: inconclusive: 3.9 µM [inhibitor, single point]

COc1cc2c(Nc3ccc(Cl)c(Cl)c3F)ncnc2cc1OCC1C[C@@H]2CN(C)C[C@@H]2C1 (stereo partly specified)
Potency ([5]; HiBiT): inconclusive: 24.9 µM [inhibitor, partial curve]
Potency ([5]; Viability): active: 17.6 µM and inconclusive: 44.3 µM [cytotoxic, single point]
